Results from publication PMC5589935.
These are yes or no findings as the source states them, for the method shown. In cells and extracts the contact can be indirect. Some binding calls cover weakened binding; strength is not graded here.

Sequences of proteins named here, by UniProt entry; tags and fusion partners are left off.
UniProt Q9GZT9: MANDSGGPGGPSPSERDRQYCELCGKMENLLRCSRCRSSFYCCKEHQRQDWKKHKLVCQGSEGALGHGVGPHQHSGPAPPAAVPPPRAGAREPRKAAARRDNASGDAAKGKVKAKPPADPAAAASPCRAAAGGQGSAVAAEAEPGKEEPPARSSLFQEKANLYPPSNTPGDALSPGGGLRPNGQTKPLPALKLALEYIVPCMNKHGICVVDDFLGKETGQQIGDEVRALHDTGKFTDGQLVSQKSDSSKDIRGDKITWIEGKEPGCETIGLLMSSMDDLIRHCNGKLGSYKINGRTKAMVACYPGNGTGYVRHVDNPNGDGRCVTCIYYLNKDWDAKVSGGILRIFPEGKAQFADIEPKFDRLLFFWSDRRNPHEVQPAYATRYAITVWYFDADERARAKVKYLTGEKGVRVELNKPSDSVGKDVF
UniProt Q92769: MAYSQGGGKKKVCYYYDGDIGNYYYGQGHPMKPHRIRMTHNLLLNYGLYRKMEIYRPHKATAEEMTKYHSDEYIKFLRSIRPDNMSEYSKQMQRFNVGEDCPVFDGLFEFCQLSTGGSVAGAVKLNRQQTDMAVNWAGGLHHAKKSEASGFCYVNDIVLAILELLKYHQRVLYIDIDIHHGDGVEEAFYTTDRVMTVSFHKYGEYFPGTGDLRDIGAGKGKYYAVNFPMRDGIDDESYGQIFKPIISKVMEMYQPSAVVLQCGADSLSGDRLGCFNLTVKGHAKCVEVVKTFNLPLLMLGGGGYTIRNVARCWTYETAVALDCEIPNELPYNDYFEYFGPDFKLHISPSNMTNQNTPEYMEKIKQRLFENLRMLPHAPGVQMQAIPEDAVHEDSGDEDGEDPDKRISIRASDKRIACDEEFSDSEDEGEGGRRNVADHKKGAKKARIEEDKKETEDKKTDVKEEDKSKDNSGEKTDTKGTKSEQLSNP
UniProt Q9UGP4: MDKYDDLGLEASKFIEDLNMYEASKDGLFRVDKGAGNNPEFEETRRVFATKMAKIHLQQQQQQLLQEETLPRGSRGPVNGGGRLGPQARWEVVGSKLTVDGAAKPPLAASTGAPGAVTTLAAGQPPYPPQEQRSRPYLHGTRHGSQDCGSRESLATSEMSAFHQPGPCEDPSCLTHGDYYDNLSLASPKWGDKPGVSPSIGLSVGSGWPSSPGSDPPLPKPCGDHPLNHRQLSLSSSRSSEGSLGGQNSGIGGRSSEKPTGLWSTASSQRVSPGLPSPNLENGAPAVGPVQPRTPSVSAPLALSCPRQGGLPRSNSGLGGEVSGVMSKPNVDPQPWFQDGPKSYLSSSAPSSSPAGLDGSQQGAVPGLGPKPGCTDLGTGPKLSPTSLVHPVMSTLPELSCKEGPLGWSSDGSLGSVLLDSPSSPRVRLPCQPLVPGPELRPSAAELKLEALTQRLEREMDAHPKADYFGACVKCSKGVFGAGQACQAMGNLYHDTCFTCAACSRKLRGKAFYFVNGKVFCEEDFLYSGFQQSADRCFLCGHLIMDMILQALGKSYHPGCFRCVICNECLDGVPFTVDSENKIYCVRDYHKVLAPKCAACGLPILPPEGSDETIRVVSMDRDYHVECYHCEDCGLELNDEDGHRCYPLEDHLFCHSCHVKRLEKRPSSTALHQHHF
UniProt Q15365: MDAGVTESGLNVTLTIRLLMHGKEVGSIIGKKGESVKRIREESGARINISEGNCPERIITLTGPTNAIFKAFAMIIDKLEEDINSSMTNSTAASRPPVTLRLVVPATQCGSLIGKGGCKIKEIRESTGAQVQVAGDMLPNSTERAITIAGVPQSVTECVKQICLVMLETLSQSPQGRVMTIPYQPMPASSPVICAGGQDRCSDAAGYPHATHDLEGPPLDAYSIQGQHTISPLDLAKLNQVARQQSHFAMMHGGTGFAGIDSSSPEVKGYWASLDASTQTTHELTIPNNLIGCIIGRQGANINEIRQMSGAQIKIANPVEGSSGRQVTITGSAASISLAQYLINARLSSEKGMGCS

Experiments:
[1] = target: PHD2 (human (endogenous in A2058)) (UniProt Q9GZT9); test: co-IP; endogenous proteins of A2058 cell lysates, cells treated with ADI for various times (also with the antioxidant TEMPO, which inhibited the ADI-induced interaction); antibody and protein A sepharose, Western blot
[2] = target: HDAC2 (human (endogenous in A2058)) (UniProt Q92769); test: as above
HDAC2-Flag = HDAC2-Flag (UniProt Q92769); test: co-IP; 293 cells cotransfected with recombinants encoding HDAC2-Flag and PHD2-GFP

Substance | binding [1] | also measured
HDAC2 (from UniProt Q92769 1-488) (enzyme) | binds | 
LIMD1 (from UniProt Q9UGP4 1-676) | binds | 
PCBP1 (from UniProt Q15365 1-356) | binds | 
PHD2 (from UniProt Q9GZT9 1-426) (enzyme) |  | binding [2]: binds
PHD2-GFP (from UniProt Q9GZT9 1-426) (enzyme) |  | binding (HDAC2-Flag): binds
